# Experimental data: PubChem BioAssay AID743121 (NCATS, 2013)
# Screen: 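Genes whose silencing strengthens cell killing by camptothecin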 (primary screen)
# Cells: MDA-MB-231 cells, a human breast cancer line
# Reagents: single siRNA against human genes, 20 nM siRNA (0.8 pmol per well)
# Timing: 120 h (drug added 48 h after transfection, read 72 h later)
# Conditions: camptothecin 20 nM (about EC30) for 72 h; vehicle 0.1% DMSO in parallel plates
# Measured: 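Cell viability by ATP luminescence (CellTiter-Glo) as % of non-targeting siRNA wells, and the log2 ratio of viability without drug over viability with camptothecin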
# Reading the numbers: log2 vehicle/camptothecin viability: higher = stronger sensitisation to camptothecin; viability with camptothecin and viability without drug: higher = more viable cells
# Hit rule: 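Active genes have an RSA gene-level p-value below 0.001, computed from the ratios of their separate siRNAs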
# Shown is an unselected part of about 26,000 reagents. 167 of them (0.63%) were called active. 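Calls are per gene from RSA p-values that are not deposited; an individual active-marked siRNA can sensitise only weakly.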 Entries without a mark were called inactive. The numbers tell different reagents against one gene apart.
target,reagent,log2 vehicle/camptothecin viability,viability with camptothecin (% of control),viability without drug (% of control)
BIRC6,1,-0.103,94.8,88.3
BIRC6,2,-0.0247,102,101
BIRC6,3,-0.196,96.4,84.1
BIRC6,4,-0.612,101,66.4
PAX2,1,-0.0988,60.2,56.2
PAX2,2,0.225,29.3,34.2
PAX2,3,-0.808,75.1,42.9
PAX2,4,0.0989,97.4,104
GPR12,1,0.0777,76.1,80.4
GPR12,2,-0.388,88.8,67.9
GPR12,3,-0.2,35.6,31
GPR12,4,-0.452,57.1,41.8
PTPN18,1,-0.654,79.3,50.4
PTPN18,2,-0.109,81.7,75.7
PTPN18,3,-0.148,54.4,49.1
PTPN18,4,0.0431,95.5,98.4
ANAPC5,1,-0.056,70.3,67.6
ANAPC5,2,-0.178,83.9,74.2
ANAPC5,3,0.628,49.9,77.1
ANAPC5,4,-0.594,79,52.3
RARRES1,1,-0.0991,110,102
RARRES1,2,-0.0558,98.4,94.7
RARRES1,3,-0.00766,78.1,77.7
RARRES1,4,-0.376,63.9,49.2
INHBE,1,-0.00216,74.7,74.6
INHBE,2,0.0344,79.7,81.7
INHBE,3,-0.094,39.2,36.7
INHBE,4,0.122,76.3,83
KCNA4,1,-0.045,109,105
KCNA4,2,0.00227,50.7,50.7
KCNA4,3,-0.341,53.5,42.2
KCNA4,4,0.222,75.3,87.9
FNTA,1,-0.43,74.2,55.1
FNTA,2,-0.602,73.4,48.3
FNTA,3,-0.353,95.3,74.6
FNTA,4,-0.646,65.4,41.8
DGCR6,1,0,46.4,46.4
DGCR6,2,-0.176,69.7,61.8
DGCR6,3,0.0937,29.1,31.1
DGCR6,4,-0.496,76.7,54.4
TP53AIP1,1,0.248,65.9,78.3
TP53AIP1,2,1.01,32.3,65.1
TP53AIP1,3,0.129,64.9,70.9
TP53AIP1,4,-0.231,50.9,43.3
TFR2,1,-0.42,69.3,51.8
TFR2,2,-0.028,104,102
TFR2,3,-0.14,41.5,37.7
AKAP11,1,-0.196,107,93
AKAP11,2,-0.433,42.4,31.4
AKAP11,3,0.139,79.2,87.2
AKAP11,4,-0.175,88.6,78.4
OR2C3,1,-0.376,110,85
OR2C3,2,-0.551,122,83.1
OR2C3,3,-0.205,89,77.2
OR2C3,4,-0.0328,97.9,95.7
SERPINI2,1,-0.516,93.5,65.4
SERPINI2,2,-0.171,65.5,58.2
SERPINI2,3,-0.0922,58.5,54.9
SERPINI2,4,-0.113,103,95.1
TLE5,1,0.01,91.6,92.3
TLE5,2,-0.26,90.7,75.7
TLE5,3,-0.328,52.2,41.6
TLE5,4,-0.306,63.2,51.1
CHRNB1,1,-0.216,109,93.6
CHRNB1,2,-0.464,66.7,48.3
CHRNB1,3,-0.439,90.9,67.1
CHRNB1,4,0.0349,101,103
SATB1,1,-0.133,87.2,79.6
SATB1,2,-0.0072,80.6,80.2
SATB1,3,0.157,28.8,32.1
SATB1,4,0.0687,65.8,69
